# Laboratory results reported in PubChem BioAssay AID540256 (National Center for Advancing Translational Sciences (NCATS), 2011).
# About 3,700 (1.2%) of roughly 300,000 compounds were called active. The shares of active, inactive and inconclusive entries below differ from those in the screen. Calls follow the shape of the full dose curve; tested in HEK293 cells. Potencies of inconclusive entries are doubtful fits and often do not repeat.
# Assay: qHTS for Inhibitors of binding or entry into cells for Lassa Virus; also: nearly all actives have a fitted effect of over 50% in size
# Conditions: Lassa virus pseudotype entry inhibition, cell reporter; activity change, negative = inhibition: at 37.9 µM (top of the series) unless noted
# % is scaled to controls: 0 for no effect and ±100 for the full control effect; potency is read from the fitted curve at half-maximal effect.
SMILES,"activity change, negative = inhibition",Potency
Cc1sc2ncnc(N3CCCCC3)c2c1C,inactive: -3.01%,
O=C(CCc1ccccc1)N/N=C\c1cc2c(cc1Br)OCO2,,"inconclusive: 8.91 µM [inhibitor, partial curve, poor fit]"
CC/C(=N/Nc1cccc(Cl)c1)c1cnnc(SC)n1,,"inconclusive: 0.562 µM [inhibitor, single point]"
O=C(O)c1ccc2nc(-c3ccccc3)sc2c1,,active: 2.24 µM
Cc1cc(C)c(-c2cc(NC(=O)COC(=O)c3ccc(C#N)cc3)n(-c3ccccc3)n2)cc1C,,"inconclusive: 5.62 µM [activator, single point]"
CCCOc1ccc(-c2cn3ccccc3n2)cc1[N+](=O)[O-],,"inconclusive: 25.1 µM [inhibitor, single point]"
O=C1[C@@H]2CSCCS(=O)(=O)N2C(=O)N1c1cccc2ccccc12,,"inconclusive: 22.3 µM [activator, single point]"
Cc1cc(C(=O)CSc2nc3ccccc3c(=O)n2C)c(C)n1Cc1ccc2c(c1)OCO2,,"inconclusive: 2.06 µM [inhibitor, full curve]"
O=C(O)C1CCN(C(=O)COc2ccc(Br)cc2)CC1,inactive: 20% [at 46.1 µM],
COc1ccc(C(CC(=O)N2CCCC2)c2ccc(F)cc2)cc1 (centres undefined),inactive: -9.51% [at 46.1 µM],
Cc1nc2ccccc2n1/N=C/c1ccc([N+](=O)[O-])s1,,"inconclusive: 8.91 µM [inhibitor, partial curve, poor fit]"
O=C(CCc1nnc(Cc2c[nH]c3ccccc23)o1)NC1CCCC1,inactive: 12.9%,
O=C(Nc1ccccc1-c1nnn(CC(=O)N2CCCc3ccccc32)n1)c1cccc(Cl)c1,,"inconclusive: 2.06 µM [inhibitor, partial curve, poor fit]"
CCC(C)c1ccccc1N1CC(C(=O)Nc2cccc(S(=O)(=O)N3CCOCC3)c2)CC1=O (centres undefined),,"inconclusive: 1.12 µM [activator, single point]"
CCOc1ccc(S(=O)(=O)NCCC(=O)NCC(c2cccs2)N(C)C)cc1 (centres undefined),,"inconclusive: 6.31 µM [activator, full curve]"
CCCCNC(=S)N=Nc1c(O)n(Cc2ccccc2)c2ccccc12,inactive: -13.1%,
Cc1cn(C)c(CC(=O)Nc2ccc(F)cc2Cl)c1C(=O)O,,"inconclusive: 20 µM [activator, partial curve, poor fit]"
CC(C)C(C)(C#N)NC(=O)CSc1nc2scc(-c3ccc(F)cc3)c2c(=O)n1Cc1ccccc1 (centres undefined),,"inconclusive: 7.08 µM [inhibitor, full curve]"
CCNS(=O)(=O)c1ccc2c(c1)NCC2,,"inconclusive: 15.8 µM [activator, partial curve, poor fit]"

# Some values from the results shown.
# Potency, O=C(CCc1ccccc1)N/N=C\c1cc2c(cc1Br)OCO2 reads inconclusive: 8.91 µM [inhibitor, partial curve, poor fit]
# activity change, negative = inhibition, CCCCNC(=S)N=Nc1c(O)n(Cc2ccccc2)c2ccccc12 reads inactive: -13.1%
